In US6281248A, “Composition for treating asthma” (priority 2000, dated 2001):

Legend:
[1] = tested on: adrenergic alpha2 receptor; conditions: in vitro
[2] = tested on: GABA receptors; conditions: in vitro
[3] = tested on: plasma protein binding of warfarin; test: Plasma protein binding of warfarin; format: in vitro ADME; conditions: sertraline up to 300 ng/mL, desmethylsertraline up to 200 ng/mL
[4] = tested on: serotonergic 5HT1A receptor; conditions: in vitro
[5] = tested on: dopaminergic receptors; conditions: in vitro
[6] = clinical; conditions: human, plasma, time to reach peak plasma concentration, single dose
[7] = single dose, 50 to 200 mg
[8] = human, in vivo
[9] = tested on: cholinergic receptors; conditions: in vitro
[10] = tested on: mouse boric marrow; conditions: in vivo
[11] = tested on: human lymphocytes; conditions: in vitro, with or without metabolic activation
[12] = tested on: adrenergic beta receptor; conditions: in vitro
[13] = tested on: benzodiazepine receptors; conditions: in vitro
[14] = tested on: plasma protein binding of propranolol; test: Plasma protein binding of propranolol; format: in vitro ADME; conditions: sertraline up to 300 ng/mL, desmethylsertraline up to 200 ng/mL
[15] = tested on: serotonergic 5HT1B receptor; conditions: in vitro
[16] = tested on: histaminergic receptors; conditions: in vitro
[17] = tested on: adrenergic alpha1 receptor; conditions: in vitro
[18] = clinical; conditions: human, plasma, po

CN[C@H]1CC[C@@H](c2ccc(Cl)c(Cl)c2)c2ccccc21.Cl [sertraline, (1S-cis)-4-(3,4-dichlorophenyl)-1,2,3,4-tetrahydro-N-methyl-1-naphthalenamine hydrochloride]
affinity for adrenergic alpha2 receptors [1]: no significant affinity | affinity for GABA receptors [2]: no significant affinity | alteration of plasma protein binding of warfarin [3]: did not alter | affinity for serotonergic 5HT1A receptors [4]: no significant affinity | affinity for dopaminergic receptors [5]: no significant affinity | Tmax ([6]; with food): 5.5 h | Tmax ([6]; without food): 8 h | area under plasma concentration time curve (AUC) dose proportionality [7]: proportional to dose | share of the plasma radioactivity [8]: less than 5% | administered radioactivity accounted for in feces ([8]; 216 h): 40-45% | administered radioactivity recovered in urine ([8]; 216 h): 40-45% | affinity for cholinergic receptors [9]: no significant affinity | genotoxic effects, cytogenetic aberrations in mouse bone marrow [10]: no genotoxic effects | genotoxic effects, cytogenetic aberrations in human lymphocytes [11]: no genotoxic effects | affinity for adrenergic beta receptors [12]: no significant affinity | affinity for benzodiazepine receptors [13]: no significant affinity | alteration of plasma protein binding of propranolol [14]: did not alter | affinity for serotonergic 5HT1B receptors [15]: no significant affinity | affinity for histaminergic receptors [16]: no significant affinity | affinity for adrenergic alpha1 receptors [17]: no significant affinity | Tmax [18]: 4.5 to 8.4 h
